This experiment concerns L1210 leukemia ip in BDF1 mice, survival T/C. The experiment can be described thus: NCI In Vivo Anticancer Drug Screen. Data for tumor model L1210 Leukemia (intraperitoneal) in B6D2F1 (BDF1) mice. The following applies: T/C endpoint: mean survival time, higher T/C = longer survival.
The mark [1] stands for this setting: dose: 25.0 mg/kg/injection, schedule: Q04DX003 (ip), vehicle: water.
Setting [2] is: dose: 50.0 mg/kg/injection, schedule: Q04DX003 (ip), vehicle: water.
Setting [3] is: dose: 150.0 mg/kg/injection, schedule: Q01DX001 (ip), vehicle: other.
Setting [4] is: dose: 400.0 mg/kg/injection, schedule: Q01DX001 (ip), vehicle: saline.
Where [5] appears, read: dose: 50.0 mg/kg/injection, schedule: Q01DX009 (ip), vehicle: saline.
[6] abbreviates: dose: 100.0 mg/kg/injection, schedule: Q01DX009 (ip), vehicle: saline.
The mark [7] stands for this setting: dose: 200.0 mg/kg/injection, schedule: Q01DX009 (ip), vehicle: saline.
Where [8] appears, read: dose: 400.0 mg/kg/injection, schedule: Q01DX009 (ip), vehicle: saline with Tween-80.
The mark [9] stands for this setting: dose: 400.0 mg/kg/injection, schedule: Q04DX003 (ip), vehicle: saline with Tween-80.
Setting [10] is: dose: 100.0 mg/kg/injection, schedule: Q01DX009 (ip), vehicle: gum acacia.
[11] abbreviates: dose: 200.0 mg/kg/injection, schedule: Q01DX009 (ip), vehicle: gum acacia.
Where [12] appears, read: dose: 400.0 mg/kg/injection, schedule: Q01DX009 (ip), vehicle: gum acacia.

Structures are written as SMILES. The list does not hold the whole screen: it is rich in T/C values a quarter to a half above the control, in often repeated tests (any T/C) and in doses without a T/C. Further doses and runs are listed elsewhere. T/C gives the treated animals as a percentage of the vehicle group. Some entries give survivors of the animals treated and no T/C: the source files T/C as zero there, which appears to mark a toxic dose or a test without result, not a measured value. Some doses without a T/C left all or most animals alive at the check, yet need not have been tolerated: the source hardly ever lists a survival T/C far under the control, and the zero likely stands for such cases as well. Counts of survivors are from the toxicity check (mostly the fifth day) where no day follows; animals may have died later. Schedules are NCI's codes, read here as Q, the interval in days (D) or hours (H), X, the number of doses. Some doses were run more than once; the results are listed from low to high. Where survival is the endpoint, the PubChem record calls one and a half times the control and up active, and a quarter to a half above the control has no call in these data; cut-offs in other NCI protocols can differ. Marks such as (2×) give the number of equal values in this list. Some T/C values are followed by the survivors on the day toxicity was checked, most often the fifth; where none is given, no animal had died by that day.

As to `O=C(CI)Nc1ccc(O)c2ccccc12`, the T/C (dose: 12.5 mg/kg/injection, schedule: Q04DX003 (ip), vehicle: water) was 86, 96 [5 of 6 alive] (2×), 107 % of control; the T/C under setting [1] was 88 % of control; the T/C under setting [2] was 89 [5 of 6 alive], 94, 128 % of control. Besides, the survivor count is 2 of 6 (dose: 25.0 mg/kg/injection, schedule: Q01DX009 (ip), vehicle: water); 4 of 6 and 6 of 6 under setting [1]; 0 of 6 (dose: 50.0 mg/kg/injection, schedule: Q01DX009 (ip), vehicle: water); 0 of 6 under setting [2]; 1 of 6 (dose: 75.0 mg/kg/injection, schedule: Q01DX001 (ip), vehicle: other); 0 of 6 (dose: 100.0 mg/kg/injection, schedule: Q04DX003 (ip), vehicle: water). Further, the survivor count was 0 of 6 under setting [3]; 1 of 6 (dose: 200.0 mg/kg/injection, schedule: Q04DX003 (ip), vehicle: water); 0 of 6 (dose: 300.0 mg/kg/injection, schedule: Q01DX001 (ip), vehicle: other); 0 of 6 (dose: 400.0 mg/kg/injection, schedule: Q04DX003 (ip), vehicle: water).
In the case of `Cc1ccc(O)c(N=O)c1.[Co]`, under setting [4], the survivor count is on record as 2 of 4.
Turning to `NOCCCCCCON`, the survivor count (dose: 400.0 mg/kg/injection, schedule: Q04DX003 (ip), vehicle: saline) was 2 of 4.
With `O=C1NC2(CCCCC2)C(=O)N1CCN(CCCl)CCCl`, the T/C is 126 % of control (dose: 16.0 mg/kg/injection, schedule: Q04DX003 (ip), vehicle: saline); 125, 130, 136 % of control (dose: 25.0 mg/kg/injection, schedule: Q04DX003 (ip), vehicle: saline); 131 and 137 % of control [5 of 6 alive] (dose: 35.0 mg/kg/injection, schedule: Q04DX003 (ip), vehicle: saline). Moreover, the survivor count reads like this: under setting [5], 2 of 6; (dose: 50.0 mg/kg/injection, schedule: Q04DX003 (ip), vehicle: saline) 5 of 6; under setting [6], 2 of 6; (dose: 100.0 mg/kg/injection, schedule: Q04DX003 (ip), vehicle: saline) 3 of 6; under setting [7], 0 of 6; (dose: 200.0 mg/kg/injection, schedule: Q04DX003 (ip), vehicle: saline) 0 of 6.
For the compound `COc1cc(/C=C(/C)[N+](=O)[O-])ccc1O`, the survivor count (dose: 100.0 mg/kg/injection, schedule: Q01DX009 (ip), vehicle: carboxymethylcellulose (CMC)) is listed as 3 of 6; the survivor count (dose: 200.0 mg/kg/injection, schedule: Q01DX009 (ip), vehicle: carboxymethylcellulose (CMC)) was 1 of 6; the survivor count (dose: 400.0 mg/kg/injection, schedule: Q04DX003 (ip), vehicle: Klucel (hydroxypropylcellulose) (HPC)) is listed as 1 of 6.
Regarding `O=C1c2cccc3c(Br)ccc(c23)C(=O)N1C1CCCCCCCCCCC1`, the survivor count under setting [8] is 3 of 6.
`CC1([N+](=O)[O-])COP(=O)(O)OC1` (stereo not given) (tested in a mixture with another compound): the survivor count under setting [4] is 0 of 4.
In the case of `CNC(=S)N/N=C(\C=N\NC(=S)NC)c1ccccc1`, the survivor count by setting is: (dose: 1.0 micrograms/kg/injection, schedule: Q01DX009 (ip), vehicle: carboxymethylcellulose (CMC)) 0 of 6; (dose: 5.0 micrograms/kg/injection, schedule: Q01DX009 (ip), vehicle: carboxymethylcellulose (CMC)) 0 of 6; (dose: 10.0 micrograms/kg/injection, schedule: Q01DX009 (ip), vehicle: carboxymethylcellulose (CMC)) 4 of 6.
For `[CH3][Sn]([Br])([Br])[CH2]CCCBr`, the survivor count was 0 of 3 under setting [5], 0 of 3 under setting [6] and 0 of 3 under setting [7].
With `BrCC(Br)CBr`, the survivor count under setting [9] is on record as 0 of 6.
On to `CC(C)(C)c1cc(/C=N/NC(=O)CNC(=O)Nc2cccc(C(F)(F)F)c2)cc(C(C)(C)C)c1O`, for which the T/C is 86 and 93 % of control under setting [10]; 90 % of control (2×) under setting [11]; 90 % of control (2×) under setting [12]. Also, the survivor count was 3 of 3 and 6 of 6 under setting [10]; 3 of 3 and 6 of 6 under setting [11]; 3 of 3 (dose: 200.0 mg/kg/injection, schedule: Q04DX002 (ip), vehicle: gum acacia); 3 of 3 and 6 of 6 under setting [12].
Consider `CC(CC(=O)O)C(C(=O)O)C(=O)O` (stereo not given), for which, for the setting “dose: 400.0 mg/kg/injection, schedule: Q01DX009 (ip), vehicle: water”, the survivor count is 0 of 6.
`CC1(C)CCCC2(C)C1CC(O)C1(CO1)C2CCC(C)(O)C1CO1` (stereo not given): the survivor count runs as follows: (dose: 100.0 mg/kg/injection, schedule: Q01DX009 (ip), vehicle: DMSO) 4 of 6; (dose: 200.0 mg/kg/injection, schedule: Q04DX003 (ip), vehicle: DMSO) 5 of 6; (dose: 400.0 mg/kg/injection, schedule: Q04DX003 (ip), vehicle: DMSO) 2 of 6.
For `CC(C)COP(=O)(Cc1ccccc1)OCC(C)C`, for the setting “dose: 400.0 mg/kg/injection, schedule: Q01DX009 (ip), vehicle: Klucel (hydroxypropylcellulose) (HPC)”, the survivor count is recorded as 3 of 6.
Consider `CN=C(NO)c1ccccc1`, for which the survivor count (dose: 400.0 mg/kg/injection, schedule: Q01DX001 (ip), vehicle: Klucel (hydroxypropylcellulose) (HPC)) was 2 of 6.
In the case of `C=C(NC(=O)COc1ccccc1)C(=O)O`, the survivor count (dose: 400.0 mg/kg/injection, schedule: Q01DX009 (ip), vehicle: saline) was 0 of 6.
Regarding `[CH3][Pb]([CH3])([CH3])[NH]C#N`, the survivor count reads like this: (dose: 20.0 mg/kg/injection, schedule: Q04DX003 (ip), vehicle: saline) 1 of 6; (dose: 100.0 mg/kg/injection, schedule: Q04DX003 (ip), vehicle: saline with Tween-80) 0 of 6; (dose: 200.0 mg/kg/injection, schedule: Q04DX003 (ip), vehicle: saline with Tween-80) 0 of 6; under setting [9], 0 of 6.
For the compound `O=C(Cc1cccc2ccccc12)N/N=C/c1ccc(Cl)cc1Cl`, the survivor count under setting [8] is given as 6 of 6.
For `O=C(Nc1ccc(C(=O)O)cc1)Oc1ccc(N(CCCl)CCCl)cc1`, the T/C reads like this: (dose: 24.0 mg/kg/injection, schedule: Q01DX009 (ip), vehicle: other) 130 % of control; (dose: 24.0 mg/kg/injection, schedule: Q01DX009 (ip), vehicle: saline) 141 % of control; (dose: 48.0 mg/kg/injection, schedule: Q01DX009 (ip), vehicle: saline) 129 % of control; (dose: 150.0 mg/kg/injection, schedule: Q01DX001 (ip), vehicle: carboxymethylcellulose (CMC)) 142 % of control; under setting [3], 130 % of control. In addition, the survivor count runs as follows: (dose: 192.0 mg/kg/injection, schedule: Q01DX009 (ip), vehicle: other) 3 of 6; (dose: 192.0 mg/kg/injection, schedule: Q01DX009 (ip), vehicle: saline) 2 of 6; (dose: 300.0 mg/kg/injection, schedule: Q01DX001 (ip), vehicle: carboxymethylcellulose (CMC)) 6 of 6.
In the case of `Cc1cc2ccccc2cn1`, the survivor count by setting is: (dose: 400.0 mg/kg/injection, schedule: Q01DX001 (ip), vehicle: other) 1 of 4; under setting [9], 0 of 6.

Source of the values: PubChem BioAssay AID248 (DTP/NCI, 2004).
